{"source": "paper PMC2992532", "about": "“A tryptophan-rich peptide acts as a transcription activation domain” (BMC Molecular Biology, 2010)", "binders": {"B1": {"name": "B42-W7 fusion protein (heptatryptophan, W7) (peptide)", "chain": "WWWWWWW"}}, "key": {"[1]": {"target": "T1, LexA-TFIIB fusion protein (UniProt P29055 1-345)", "T1 sequence (looked up)": "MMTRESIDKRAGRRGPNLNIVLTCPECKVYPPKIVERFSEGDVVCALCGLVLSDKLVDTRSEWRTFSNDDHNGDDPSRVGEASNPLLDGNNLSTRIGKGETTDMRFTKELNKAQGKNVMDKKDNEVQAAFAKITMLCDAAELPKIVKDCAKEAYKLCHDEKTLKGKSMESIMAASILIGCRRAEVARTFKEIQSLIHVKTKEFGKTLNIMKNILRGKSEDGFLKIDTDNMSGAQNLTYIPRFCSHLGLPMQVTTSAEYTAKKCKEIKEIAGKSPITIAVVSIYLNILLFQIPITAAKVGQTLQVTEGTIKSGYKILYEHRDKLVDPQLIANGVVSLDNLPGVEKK", "experiment": "two-hybrid; LexA-based yeast two-hybrid in strain EGY48; bait as LexA fusion in pGilda, prey B42-W7; reporter genes LEU2 and lacZ"}, "LexA-TBP fusion protein": {"target": "T2, LexA-TBP fusion protein (UniProt P13393)", "T2 sequence": "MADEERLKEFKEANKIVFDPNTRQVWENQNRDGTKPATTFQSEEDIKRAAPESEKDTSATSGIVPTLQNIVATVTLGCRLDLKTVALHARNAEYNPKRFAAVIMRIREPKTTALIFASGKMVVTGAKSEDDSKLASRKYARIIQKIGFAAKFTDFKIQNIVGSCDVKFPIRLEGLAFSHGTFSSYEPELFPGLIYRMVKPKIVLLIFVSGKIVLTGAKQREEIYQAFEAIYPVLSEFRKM", "experiment": "two-hybrid; LexA-based yeast two-hybrid in strain EGY48; bait as LexA fusion in pGilda, prey B42-W7; reporter genes LEU2 and lacZ"}}, "note": "Results are given in words; binding and its absence hold for the method and conditions named. Some binding calls cover weakened binding; strength is not graded here. Sequences can lack the tags named with a protein.", "data": [{"binder": "B1", "values": [{"measurement": "binding", "setting": "[1]", "result": "binds"}, {"measurement": "binding", "setting": "LexA-TBP fusion protein", "result": "no binding"}]}]}
